In patent publication US20090269798A1, “METHOD AND SYSTEM FOR SELECTING CHEMOTHERAPEUTIC AGENTS” (UNIVERSITY OF NORTHERN IOWA RESEARCH FOUNDATION, priority 2008, published 2009):

How the values were obtained:
Details in all cases: 30-minute exposure, ± standard deviation
[1] = tested on: Normal PBMC
[2] = tested on: YT-INDY (human NK cell leukemia)
[3] = tested on: K-562 (human erythroleukemia)
[4] = tested on: THP-1 (human monocytic leukemia)
[5] = tested on: Jurkat (human T lymphocytic leukemia)
[6] = initial 25 μM hydrogen peroxide
[7] = initial 50 μM hydrogen peroxide
[8] = initial 100 μM hydrogen peroxide
[9] = initial 200 μM hydrogen peroxide

## OO [Hydrogen Peroxide, hydrogen peroxide]
[1]; [6]
  percentage of hydrogen peroxide remaining in cultures: 31.7 ± 2.4^b %
[1]; [7]
  percentage of hydrogen peroxide remaining in cultures: 13.8 ± 1.8%
[1]; [8]
  percentage of hydrogen peroxide remaining in cultures: 9.2 ± 1.9%
[1]; [9]
  percentage of hydrogen peroxide remaining in cultures: 11.8 ± 0.4%
[2]; [6]
  percentage of hydrogen peroxide remaining in cultures: 48.0 ± 1.6%
[2]; [7]
  percentage of hydrogen peroxide remaining in cultures: 32.1 ± 0.0%
[2]; [8]
  percentage of hydrogen peroxide remaining in cultures: 30.9 ± 1.1%
[2]; [9]
  percentage of hydrogen peroxide remaining in cultures: 49.3 ± 2.3%
[3]; [6]
  percentage of hydrogen peroxide remaining in cultures: 47.6 ± 1.6%
[3]; [7]
  percentage of hydrogen peroxide remaining in cultures: 54.8 ± 10.0%
[3]; [8]
  percentage of hydrogen peroxide remaining in cultures: 73.1 ± 2.1%
[3]; [9]
  percentage of hydrogen peroxide remaining in cultures: 73.1 ± 1.4%
[4]; [6]
  percentage of hydrogen peroxide remaining in cultures: 12.8 ± 0.4%
[4]; [7]
  percentage of hydrogen peroxide remaining in cultures: 10.4 ± 0.2%
[4]; [8]
  percentage of hydrogen peroxide remaining in cultures: 11.1 ± 0.0%
[4]; [9]
  percentage of hydrogen peroxide remaining in cultures: 13.9 ± 0.3%
[5]; [6]
  percentage of hydrogen peroxide remaining in cultures: 97.2 ± 6.8%
[5]; [7]
  percentage of hydrogen peroxide remaining in cultures: 73.0 ± 18.8%
[5]; [8]
  percentage of hydrogen peroxide remaining in cultures: 85.3 ± 13.0%
[5]; [9]
  percentage of hydrogen peroxide remaining in cultures: 96.0 ± 0.0%

Read-outs that look alike come from different tables or passages of the source. Marks after values point to notes of the source that are not given here.
